Assay results taken from US20120101257A1 (UNIVERSITE DE MONTREAL, priority 2009, published 2012).

Test: general procedure: Fmoc solid-phase peptide synthesis; Rink amide resin; Rink amide MBHA resin
Conditions: whole synthesis; for crude mass: TFA salt
[1] = 214 nm, formic acid salt (crude: TFA salt), cyclic, sequence written open
[2] = analytical RP-HPLC (UV 214), formic acid salt (crude: TFA salt), cyclic, sequence written open
[3] = formic acid salt (crude: TFA salt), cyclic, sequence written open
[4] = UV 214, formic acid salt (crude: TFA salt), cyclic, sequence written open
[5] = 214 nm, formic acid salt (crude: TFA salt)
[6] = formic acid salt (crude: TFA salt)
[7] = 214 nm, formic acid salt (crude: TFA salt), cyclic, sequence written open, run 1
[8] = 214 nm, formic acid salt (crude: TFA salt), cyclic, sequence written open, run 2
[9] = on Fmoc loading of Rink resin, formic acid salt (crude: TFA salt), cyclic, sequence written open
[10] = UV 214, formic acid salt (crude: TFA salt)

## (R)-Agl-D-Trp-Ala-Trp-D-Phe-Lys-NH2
[1]
  final HPLC purity: >93%
[2]
  crude HPLC purity: 19%
[3]
  isolated yield: 14%

## (R)-Agl-D-Tyr-D-Thr-D-Val-D-Glu-D-Leu-D-Ala-NH2
[4]
  crude HPLC purity: 55%
  final HPLC purity: >99%
[3]
  difficulty met: measurable amounts of products resulting from incomplete lactamization were observed
  isolated yield: 20%
On Fmoc loading, formic acid salt (crude: TFA salt), cyclic, sequence written open
  isolated yield: 19%

## (R)-Bab-D-Tyr-D-Thr-D-Val-D-Glu-D-Leu-D-Ala-NH2
[5]
  crude HPLC purity: 28% of 54 crude mixture
  final HPLC purity: >99%
[6]
  isolated yield: 10%

## (R)-Bgl-D-Trp-Ala-Trp-D-Phe-Lys-NH2
[1]
  crude HPLC purity: 30%
  final HPLC purity: >97%
[3]
  isolated yield: 5%

## (R)-Bgl-D-Tyr-D-Thr-D-Val-D-Glu-D-Leu-D-Ala-NH2
[1]
  final HPLC purity: >99%
[7]
  crude HPLC purity: 71%
[8]
  crude HPLC purity: 28%
[9]
  isolated yield: 10%
Scale 0.072 mmol, cyclic, sequence written open
  crude mass: 34 mg
Scale 0.072 mmol, formic acid salt (crude: TFA salt), cyclic, sequence written open
  isolated yield: 22%

## (S)-Agl-D-Trp-Ala-Trp-D-Phe-Lys-NH2
[4]
  crude HPLC purity: 30%
  final HPLC purity: >99%
[3]
  isolated yield: 8%

## (S)-Bgl-D-Trp-Ala-Trp-D-Phe-Lys-NH2
[4]
  crude HPLC purity: 39%
  final HPLC purity: 92%
[3]
  isolated yield: 22%

## (S)-Bgl-D-Tyr-D-Thr-D-Val-D-Glu-D-Leu-D-Ala-NH2
[5]
  crude HPLC purity: 70%
  final HPLC purity: >99%
[6]
  isolated yield: 13%
Scale 0.102 mmol
  crude mass: 34 mg

## Ac(R)-Bgl-D-Trp-Ala-Trp-D-Phe-Lys-NH2
[5]
  crude HPLC purity: 20%
  final HPLC purity: >99%
[6]
  isolated yield: 7.4%
On Fmoc loading of Rink resin, formic acid salt (crude: TFA salt)
  isolated yield: 7%

## Agl-D-Tyr-Iaa-D-Glu-D-Leu-NH2
[10]
  crude HPLC purity: 39%
  final HPLC purity: >99%
[6]
  isolated yield: 6%

## Bgl-D-Tyr-Iaa-D-Glu-D-Leu-NH2
[10]
  crude HPLC purity: 48%
  final HPLC purity: >99%
[6]
  isolated yield: 13%

## D-Agl-D-Tyr-Iaa-D-Glu-D-Leu-NH2
[10]
  crude HPLC purity: 44%
  final HPLC purity: >96%
[6]
  isolated yield: 6%

## D-Arg-(R)-Agl-D-Thr-D-Val-D-Glu-D-Leu-D-Ala-NH2
[4]
  crude HPLC purity: 41%
  final HPLC purity: >99%
[3]
  difficulty met: microwave assisted acylation required longer reaction times (>4 h) in the synthesis of analogs 55 and 56
  isolated yield: 15%

## D-Arg-(R)-Bab-D-Thr-D-Val-D-Glu-D-Leu-D-Ala-NH2
[5]
  crude HPLC purity: 45% of 55 crude mixture
  final HPLC purity: >99%
[6]
  isolated yield: 15%

## D-Arg-(R)-Bgl-D-Thr-D-Val-D-Glu-D-Leu-D-Ala-NH2
[1]
  final HPLC purity: >99%
[7]
  crude HPLC purity: 87%
[8]
  crude HPLC purity: 45%
[9]
  isolated yield: 15%
Scale 0.078 mmol, cyclic, sequence written open
  crude mass: 35 mg
Scale 0.078 mmol, formic acid salt (crude: TFA salt), cyclic, sequence written open
  isolated yield: 24%

## D-Arg-(S)-Bgl-D-Thr-D-Val-D-Glu-D-Leu-D-Ala-NH2
[5]
  crude HPLC purity: 82%
  final HPLC purity: >99%
[6]
  isolated yield: 16%
Scale 0.105 mmol
  crude mass: 33 mg

## D-Arg-(S)-Bgl-D-Tyr-D-Thr-D-Val-D-Glu-D-Leu-D-Ala-NH2
[5]
  crude HPLC purity: 56%
  final HPLC purity: >99%
[6]
  isolated yield: 18%
Scale 0.048 mmol
  crude mass: 27 mg

## D-Arg-D-Tyr-(R)-Agl-D-Val-D-Glu-D-Leu-D-Ala-NH2
[4]
  crude HPLC purity: 58%
  final HPLC purity: >99%
[3]
  difficulty met: microwave assisted acylation required longer reaction times (>4 h) in the synthesis of analogs 55 and 56
  isolated yield: 7%

## D-Arg-D-Tyr-(R)-Bab-D-Val-D-Glu-D-Leu-D-Ala-NH2
[5]
  crude HPLC purity: 27% of 56 crude mixture
  final HPLC purity: >99%
[6]
  isolated yield: 3%

## D-Arg-D-Tyr-(R)-Bgl-D-Val-D-Glu-D-Leu-D-Ala-NH2
[1]
  final HPLC purity: >99%
[7]
  crude HPLC purity: 86%
[8]
  crude HPLC purity: 27%
[9]
  isolated yield: 3%
Scale 0.082 mmol, cyclic, sequence written open
  crude mass: 34 mg
Scale 0.082 mmol, formic acid salt (crude: TFA salt), cyclic, sequence written open
  isolated yield: 23%

## D-Arg-D-Tyr-(S)-Bgl-D-Val-D-Glu-D-Leu-D-Ala-NH2
[5]
  crude HPLC purity: 60%
  final HPLC purity: >99%
[6]
  isolated yield: 17%
Scale 0.105 mmol
  crude mass: 52 mg

## D-Arg-D-Tyr-D-(S)-Bgl-Thr-D-Val-D-Glu-D-Leu-D-Ala-NH2
[5]
  crude HPLC purity: 55%
  final HPLC purity: >99%
[6]
  isolated yield: 6%
Scale 0.052 mmol
  crude mass: 6 mg

## D-Arg-D-Tyr-D-Thr-(R)-Agl-D-Glu-D-Leu-D-Ala-NH2
[4]
  crude HPLC purity: 50%
  final HPLC purity: >99%
[3]
  difficulty met: measurable amounts of products resulting from incomplete lactamization were observed
  isolated yield: 11%

## D-Arg-D-Tyr-D-Thr-(R)-Bab-D-Glu-D-Leu-D-Ala-NH2
[5]
  crude HPLC purity: 6% of 57 crude mixture
  final HPLC purity: >99%
[6]
  isolated yield: 4%

## D-Arg-D-Tyr-D-Thr-(R)-Bgl-D-Glu-D-Leu-D-Ala-NH2
[1]
  final HPLC purity: >99%
[7]
  crude HPLC purity: 79%
[8]
  crude HPLC purity: 6%
[9]
  isolated yield: 4%
Scale 0.087 mmol, cyclic, sequence written open
  crude mass: 62 mg
Scale 0.087 mmol, formic acid salt (crude: TFA salt), cyclic, sequence written open
  isolated yield: 17%

## D-Arg-D-Tyr-D-Thr-(S)-Agl-D-Glu-D-Leu-D-Ala-NH2
[5]
  crude HPLC purity: 18%
  final HPLC purity: >99%
On resin and lantern loading, formic acid salt (crude: TFA salt)
  isolated yield: 5%

## D-Arg-D-Tyr-D-Thr-(S)-Bgl-D-Glu-D-Leu-D-Ala-NH2
[5]
  crude HPLC purity: 87%
  final HPLC purity: >99%
[6]
  isolated yield: 14%
Scale 0.105 mmol
  crude mass: 28 mg

## D-Arg-D-Tyr-D-Thr-(S)-Bgl-D-Val-D-Glu-D-Leu-D-Ala-NH2
[5]
  crude HPLC purity: 71%
  final HPLC purity: >99%
[6]
  isolated yield: 10%
Scale 0.055 mmol
  crude mass: 16 mg

## D-Arg-D-Tyr-D-Thr-D-Val-(R)-Agl-D-Leu-D-Ala-NH2
[4]
  crude HPLC purity: 36%
  final HPLC purity: >99%
[3]
  isolated yield: 21%

## D-Arg-D-Tyr-D-Thr-D-Val-(R)-Bgl-D-Leu-D-Ala-NH2
[5]
  crude HPLC purity: 87%
  final HPLC purity: >99%
[6]
  isolated yield: 7%
Scale 0.098 mmol
  crude mass: 35 mg

## D-Arg-D-Tyr-D-Thr-D-Val-(S)-Bgl-D-Glu-D-Leu-D-Ala-NH2
[5]
  crude HPLC purity: 68%
  final HPLC purity: >99%
[6]
  isolated yield: 6%
Scale 0.058 mmol
  crude mass: 7 mg

## D-Arg-D-Tyr-D-Thr-D-Val-(S)-Bgl-D-Leu-D-Ala-NH2
[5]
  crude HPLC purity: 90%
  final HPLC purity: >99%
[6]
  isolated yield: 13%
Scale 0.105 mmol
  crude mass: 40 mg

## D-Arg-D-Tyr-D-Thr-D-Val-D-Glu-(R)-Agl-D-Ala-NH2
[4]
  crude HPLC purity: 81% crude purity
  final HPLC purity: >99%
[3]
  isolated yield: 7%

## D-Arg-D-Tyr-D-Thr-D-Val-D-Glu-(R)-Bgl-D-Ala-NH2
[5]
  crude HPLC purity: 50%
  final HPLC purity: >99%
[6]
  isolated yield: 14%
Scale 0.105 mmol
  crude mass: 35 mg

## D-Arg-D-Tyr-D-Thr-D-Val-D-Glu-(S)-Bgl-D-Ala-NH2
[5]
  crude HPLC purity: 96%
  final HPLC purity: >99%
[6]
  isolated yield: 11%
Scale 0.105 mmol
  crude mass: 29 mg

## D-Arg-D-Tyr-D-Thr-D-Val-D-Glu-(S)-Bgl-D-Leu-D-Ala-NH2
[5]
  crude HPLC purity: 37%
  final HPLC purity: >99%
[6]
  isolated yield: 3%
Scale 0.065 mmol
  crude mass: 20 mg

## D-Arg-D-Tyr-D-Thr-D-Val-D-Glu-D-Leu-(S)-Bgl-D-Ala-NH2
[5]
  crude HPLC purity: 97%
  final HPLC purity: >99%
[6]
  isolated yield: 18%
Scale 0.070 mmol
  crude mass: 27 mg

## D-Bgl-D-Tyr-Iaa-D-Glu-D-Leu-NH2
[10]
  crude HPLC purity: 48%
  final HPLC purity: >98%
[6]
  isolated yield: 13%

## His-(R)-Agl-Ala-Trp-D-Phe-Lys-NH2
[1]
  final HPLC purity: >99%
[2]
  crude HPLC purity: 45%
[3]
  isolated yield: 12%

## His-(R)-Bgl-Ala-Trp-D-Phe-Lys-NH2
[1]
  final HPLC purity: >99%
[7]
  crude HPLC purity: 31%
[8]
  crude HPLC purity: 35%
Analytical RP-HPLC (UV 214), formic acid salt (crude: TFA salt), cyclic, sequence written open, run 1
  crude purity (method not given): <10%
Analytical RP-HPLC (UV 214), formic acid salt (crude: TFA salt), cyclic, sequence written open, run 2
  crude purity (method not given): 35%
Formic acid salt (crude: TFA salt), cyclic, sequence written open, run 1
  isolated yield: 7.8%
Formic acid salt (crude: TFA salt), cyclic, sequence written open, run 2
  isolated yield: 8%

## His-(S)-Agl-Ala-Trp-D-Phe-Lys-NH2
[4]
  crude HPLC purity: 36%
  final HPLC purity: >99%
[3]
  isolated yield: 22%

## His-(S)-Bgl-Ala-Trp-D-Phe-Lys-NH2
[4]
  crude HPLC purity: 26%
  final HPLC purity: 91%
[3]
  isolated yield: 12%

## His-D-Trp-(R)-Agl-Trp-D-Phe-Lys-NH2
[1]
  final HPLC purity: >98%
[2]
  crude HPLC purity: 30%
[3]
  isolated yield: 4%
